Laboratory results from patent US10085955B2, “Methods and compositions for treatment of demyelinating diseases” (Pathologica LLC, priority 2013, dated 2018).
At least one compound was matched to its structure with a doubt left.

Tests used:
Format in all cases: in vivo, C57BL/6 mice
[1] = system: MOG-induced experimental autoimmune encephalomyelitis (EAE); test: Third MOG EAE protocol (MGBG, fingolimod and combination); settings: MGBG 30 mpk twice-daily, fingolimod 0.1 mpk once-daily, or both
From the text: (§1) An experimental murine model of multiple sclerosis employing a myelin oligodendrocyte glycoprotein (MOG) peptide to induce experimental autoimmune encephalomyelitis (EAE) was employed to determine the efficacy of MGBG in preventing and treating that disease. Because of its many similarities to MS, EAE is commonly used to study pathogenesis of autoimmunity, CNS inflammation, demyelination, cell trafficking, and tolerance induction. EAE is characterized by paralysis (in some models the paralysis is remitting-relapsing), CNS inflammation and demyelination. EAE is mediated primarily by dendritic cells, myelin-specific T cells (e.g. Th1 and Th17), and M1 macrophages. B cells may also play a role in some models of EAE. Body weight also tracks disease progression. EAE is induced in C57BL/6 mice by immunization with MOG35-55 or MOG1-125 in CFA emulsion followed by administration of pertussis toxin (PTX) in PBS. The emulsion provides antigen which initiates expansion and differentiation of MOG-specific autoimmune T cells. PTX enhances EAE development by providing additional adjuvant and facilitating entrance of autoimmune T cells into the CNS.
Chronic EAE develops in C57BL/6 mice after immunization with an emulsion of MOG35-55/CFA or MOG1-125/CFA followed by injection of pertussis toxin. This model is used to test the potential of compounds to prevent or mitigate EAE disease. It can be run with the compound dosed from the time of immunization (prophylactic treatment), or with the aim of reversing the course of disease and facilitating recovery by dosing the compound from the time of EAE onset (therapeutic treatment). The model uses female C57BL/6 mice of age 10 to 14 weeks at the start of the study. Typically, EAE develops 8-18 days after immunization. EAE development is usually followed for 4 weeks (28 days) after immunization.
(§2) Clinically, EAE progression is scored on a scale of 0 to 5, wherein each score represents the following clinical observations:
Inflammatory foci of approximately 20 cells were counted in each H&E stained section. When inflammatory infiltrates consisted of more than 20 cells, an estimate was made of how many foci of 20 cells were present.
The demyelination score represents an estimate of demyelinated area for each section as follows:
Ten week old female C57BL/6 mice weighing 18-23 g (Taconic Farms) were divided into four groups: mock immunized (n=3) and three MOG-immunized groups receiving MGBG at 30 mpk BID (as the di-HCl monohydrate with a correction factor of 1.49), […] dose, or 0.9% saline vehicle BID (n=12 each). […]

[2] = system: MOG-induced experimental autoimmune encephalomyelitis (EAE); test: Second MOG EAE protocol, clinical readouts; settings: second study; MGBG 30 mpk BID, fingolimod 1 mpk QD
From the text: as §1, with “CNS. […]” for “CNS.”
Clinically, EAE progression is scored on a scale of 0 to 5, wherein each score represents the following clinical observations: […]

[3] = system: MOG-induced experimental autoimmune encephalomyelitis (EAE); test: First MOG EAE protocol (murine multiple sclerosis model); settings: first study, day 28
From the text: as §1, with “CNS. […]” for “CNS.”
as §2
Inflammatory foci of approximately 20 cells were counted in each H&E stained section. […]

CCCCCCCCc1ccc(CCC(N)(CO)CO)cc1 [fingolimod]
clinical scores / development of EAE ([1]; third 28-day study): equivalently efficacious in preventing EAE development
cellular apoptosis in spinal cord ([1]; third study): equivalently efficacious in reducing apoptosis
number of inflammatory foci in spinal cord ([1]; third study): equivalently efficacious in reducing the number of inflammatory foci
spinal cord demyelination ([1]; third study): equivalently efficacious in reducing demyelination
EAE disease development / severity [2]: not as strongly suppressed as in the previous study
spinal cord histopathology (neuroinflammation, demyelination, apoptosis) [3]: reduces histopathological signs of MS
